Results taken from PMC3879332.
Where a chain is given by its changes, count along the chain named. Names and notes keep the numbering of the source. These are yes or no findings as the source states them, for the method shown. Values belong to the binder of their own block, whether it stands above or below them.

Key:
[1] = molecular target: hTyrCtr R422Q, temperature-sensitive OCA1B mutant of the human tyrosinase intra-melanosomal domain (human) (UniProt P14679); assay: SEC; gel filtration on a calibrated Superdex 75 10/30 HR column; Buffer B: 50 mM Tris-HCl, pH 7.2, 1 mM EDTA, 150 mM NaCl; room temperature; 0.5 ml/min; both purified
[2] = molecular target: hTyrCtr R422W, temperature-sensitive OCA1B mutant of the human tyrosinase intra-melanosomal domain (human) (UniProt P14679); assay: as above

binding [1]: no binding
B1: hTyrCtr R422Q, temperature-sensitive OCA1B mutant of the human tyrosinase intra-melanosomal domain (domain or fragment, UniProt P14679 19-469)
chain: HFPRACVSSKNLMEKECCPPWSGDRSPCGQLSGRGSCQNILLSNAPLGPQFPFTGVDDRESWPSVFYNRTCQCSGNFMGFNCGNCKFGFWGPNCTERRLLVRRNIFDLSAPEKDKFFAYLTLAKHTISSDYVIPIGTYGQMKNGSTPMFNDINIYDLFVWMHYYVSMDALLGGSEIWRDIDFAHEAPAFLPWHRLFLLRWEQEIQKLTGDENFTIPYWDWRDAEKCDICTDEYMGGQHPTNPNLLSPASFFSSWQIVCSRLEEYNSHQSLCNGTPEGPLRRNPGNHDKSRTPRLPSSADVEFCLSLTQYESGSMDKAANFSFRNTLEGFASPLTGIADASQSSMHNALHIYMNGTMSQVQGSANDPIFLLHHAFVDSIFEQWLRRHRPLQEVYPEANAPIGHNQESYMVPFIPLYRNGDFFISSKDLGYDYSYLQDSDPDSFQDYIKSYLE
modifications: glycoprotein (sites not stated for this variant)

binding [2]: no binding
B2: hTyrCtr R422W, temperature-sensitive OCA1B mutant of the human tyrosinase intra-melanosomal domain (domain or fragment, UniProt P14679 19-469)
chain: B1 chain with Q404W
modifications: glycoprotein (sites not stated for this variant)
